PubChem BioAssay AID504804, Drosophila RNAi Screening Center – 2011

Assay: 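Fly genes whose loss lessens doxorubicin-driven cell death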 (primary screen)
Cells: Drosophila Kc cells
Reagents: long dsRNA against Drosophila genes, 0.5 µg dsRNA per well
Duration: 96 h (48 h knock-down, then 48 h drug)
Conditions: doxorubicin 5 µg/ml for 48 h, added 48 h after dsRNA
Read-out: 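Luminescent ATP counts per replicate, not normalised, reflecting viable cells after 48 h dsRNA knock-down followed by 48 h of 5 µg/ml doxorubicin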
Scale: raw ATP luminescence: higher = more viable cells, protection from doxorubicin
Rule for the call: 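Active when both duplicate wells lie at least 2 SD above the plate mean and protection is confirmed by rescreening and independent dsRNAs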
The deposit covers about 19,000 reagents; below is a random part of those with a known target gene and a result. Of all reagents, 47 (0.25%) got an active call. 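Signals are raw, not normalised; exact z-scores behind calls not deposited; actives needed confirmation, so some wells reaching 2 SD are inactive.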 Names joined by + are all predicted targets of the reagent. No sequences are given here.

Gene,amplicon,SD above plate mean,"raw ATP luminescence, replicate 1","raw ATP luminescence, replicate 2",call
"POLDIP2 (Polymerase (DNA-directed), delta interacting protein 2)",DRSC12194,,52550,30130,inactive
Smn (survival motor neuron),DRSC10223,,29460,23413,inactive
CG13465,DRSC10011,,51390,41447,inactive
CG34008,DRSC13428,,1.58e5,2.24e5,inactive
Rx (Retinal Homeobox),DRSC03837,,72650,79953,inactive
Rx (Retinal Homeobox),DRSC04652,,53670,57430,inactive
CG31313,DRSC13044,,1.44e5,1.42e5,inactive
ADD1 (ADD domain-containing protein 1),DRSC07135,,68990,56410,inactive
CG31321,DRSC13028,,2.44e5,1.97e5,inactive
CG5334,DRSC19941,,4.06e5,3.76e5,inactive
Spg7 (Paraplegin),DRSC18469,,48880,58040,inactive
CG15365,DRSC18038,,9330,9860,inactive
Fkbp59 (FK506-binding protein 59kD),DRSC03323,,30527,69340,inactive
CG4017,DRSC02733,,42443,78810,inactive
Vps13 (Vacuolar protein sorting 13),DRSC06817,,47457,83180,inactive
mad2,DRSC10274,,75720,79583,inactive
rogdi,DRSC10906,,17753,16600,inactive
CG8079,DRSC07070,,62273,65990,inactive
CG5681,DRSC02876,,65263,75550,inactive
Est-P (Esterase P),DRSC11163,,79720,71480,inactive
EMC8-9 (ER membrane protein complex subunit 8/9),DRSC04380,,73593,59347,inactive
CG7362,DRSC16236,,83570,83180,inactive
CG12391,DRSC06147,,52903,58237,inactive
sgg (shaggy),DRSC17228,,2.25e5,2.23e5,inactive
sgg (shaggy),DRSC17722,,2.55e5,2.02e5,inactive
sgg (shaggy),DRSC18832,,51410,71250,inactive
Nmda1 (N-methyl-D-aspartate receptor-associated protein),DRSC07479,,63147,59607,inactive
dl (dorsal),DRSC03520,,91040,88803,inactive
dl (dorsal),DRSC03521,,69330,81030,inactive
kumpel (kin of rumpel),DRSC14883,,73710,57860,inactive
kumpel (kin of rumpel),DRSC16459,,67260,81760,inactive
kumpel (kin of rumpel),DRSC16460,,66300,67800,inactive
kumpel (kin of rumpel),DRSC16461,,83830,79770,inactive
kumpel (kin of rumpel),DRSC16462,,82110,99060,inactive
kumpel (kin of rumpel),DRSC16463,at least 2 SD above plate mean,1.02e5,92640,inactive
CG13667,DRSC10028,,58680,31557,inactive
sxe2 (sex-specific enzyme 2),DRSC15692,,46653,45940,inactive
CG18128,DRSC04304,,51993,75600,inactive
CG13319,DRSC06356,,2.36e5,2.41e5,inactive
CG5339,DRSC04496,,65753,62187,inactive
Invadolysin,DRSC15527,,59123,59670,inactive
Polr3H (RNA polymerase III subunit H),DRSC10817,,68300,52070,inactive
CG8036,DRSC16366,,62767,60470,inactive
CG7368,DRSC10826,,78973,81937,inactive
igl (igloo),DRSC07631,,55457,82630,inactive
ytr (yantar),DRSC04306,,91300,93663,inactive
CG6900 (retired record),DRSC20018,,3.51e5,3.10e5,inactive
snoRNA:Me28S-A982b + Uhg4 + snoRNA:Me28S-G3255a + 1 more,DRSC05143,,74540,86973,inactive
Arl2 (ADP ribosylation factor-like 2),DRSC14117,,57413,58510,inactive

The list goes on (10 carried over from the part before).
Gene,amplicon,SD above plate mean,"raw ATP luminescence, replicate 1","raw ATP luminescence, replicate 2",call
CG5339,DRSC04496,,65753,62187,inactive
Invadolysin,DRSC15527,,59123,59670,inactive
Polr3H (RNA polymerase III subunit H),DRSC10817,,68300,52070,inactive
CG8036,DRSC16366,,62767,60470,inactive
CG7368,DRSC10826,,78973,81937,inactive
igl (igloo),DRSC07631,,55457,82630,inactive
ytr (yantar),DRSC04306,,91300,93663,inactive
CG6900 (retired record),DRSC20018,,3.51e5,3.10e5,inactive
snoRNA:Me28S-A982b + Uhg4 + snoRNA:Me28S-G3255a + 1 more,DRSC05143,,74540,86973,inactive
Arl2 (ADP ribosylation factor-like 2),DRSC14117,,57413,58510,inactive
CG13108,DRSC02206,,41123,77553,inactive
CG14662,DRSC12248,,55933,51290,inactive
Pex5 (Peroxin 5),DRSC18552,,42980,53910,inactive
simj (simjang),DRSC10942,,42350,51590,inactive
spn-B (spindle B),DRSC17063,,84940,62890,inactive
gcm2,DRSC03538,,36363,74403,inactive
CG10298,DRSC12522,,60113,53120,inactive
Tm1 (Tropomyosin 1),DRSC13082,,2.26e5,2.07e5,inactive
Tm1 (Tropomyosin 1),DRSC13083,,2.62e5,2.10e5,inactive
Tm1 (Tropomyosin 1),DRSC16886,,48580,18963,inactive
ncm (nucampholin),DRSC02179,,1.20e5,74340,inactive
prd1 (pruning defect 1),DRSC15227,,60200,44230,inactive
Cds (CDP-diacylglycerol synthase),DRSC10938,,37043,38977,inactive
CG8072,DRSC10960,,63637,55683,inactive
Bap55 (Brahma associated protein 55kD),DRSC07000,,62640,67430,inactive
"Alg1 (ALG1, chitobiosyldiphosphodolichol beta-mannosyltransferase)",DRSC15297,,53770,39860,inactive
CG14357,DRSC14820,,81640,80010,inactive
tgo (tango),DRSC17077,,86220,42003,inactive
CG15909,DRSC04977,,66997,62663,inactive
mil (milkah),DRSC15696,,60540,45620,inactive
Wnt4 (Wnt oncogene analog 4),DRSC00976,,1.63e5,1.53e5,inactive
Wnt4 (Wnt oncogene analog 4),DRSC03477,,21170,34057,inactive
Tim13,DRSC09848,,79433,65917,inactive
Samtor (S-adenosylmethionine sensor upstream of TORC1),DRSC04390,,68543,54410,inactive
CG8679,DRSC03109,,40113,57070,inactive
Chsy (Chondroitin sulfate synthase),DRSC20175,,4.13e5,3.07e5,inactive
Chsy (Chondroitin sulfate synthase),DRSC20176,,4.01e5,3.11e5,inactive
lolal (lola like),DRSC06948,,72967,64500,inactive
CG9775,DRSC12330,,19760,28340,inactive
Skp2 (S-phase kinase-associated protein 2),DRSC12329,,51490,33557,inactive
dsh (dishevelled),DRSC19803,,3.44e5,2.94e5,inactive
CG33552,DRSC01551,,2.78e5,2.37e5,inactive
Datp (Diadenosine tetraphosphatase),DRSC01102,,2.53e5,3.06e5,inactive
SIFaR (SIFamide receptor),DRSC13467,,2.69e5,2.43e5,inactive
SIFaR (SIFamide receptor),DRSC14266,,42030,37540,inactive
CG34426,DRSC09977,,67007,66487,inactive
"ATPsynbetaL (ATP synthase, beta subunit-like)",DRSC10503,,73940,54387,inactive
CG14632 (retired record),DRSC17942,,50240,38600,inactive
CG9162 (retired record),DRSC03151,,1.02e5,63753,inactive
CG14427,DRSC17921,,45850,46990,inactive
CG7110,DRSC03011,,83043,80067,inactive
CG7110,DRSC03012,,69537,68273,inactive
CG7322,DRSC20036,,2.76e5,3.10e5,inactive
CG9021,DRSC03128,,1.19e5,74093,inactive
Sps1 (Selenophosphate synthetase 1),DRSC07549,,73400,71793,inactive
Fuca (alpha-L-fucosidase),DRSC10591,,60407,69223,inactive
CG8138,DRSC16386,,88970,70440,inactive
CG1801,DRSC20556,,2.84e5,3.06e5,inactive
Obp58d (Odorant-binding protein 58d),DRSC04162,,43643,49057,inactive
EndoGI (Endonuclease G inhibitor),DRSC01964,,56133,74803,inactive
CG31949,DRSC00110,,2.96e5,3.26e5,inactive
Btk (Bruton tyrosine kinase),DRSC02008,,47727,75950,inactive
Btk (Bruton tyrosine kinase),DRSC02666,,1.09e5,70807,inactive
CG15525,DRSC15062,,54020,52450,inactive
Eglp3 (Entomoglyceroporin 3),DRSC04293,,68830,49383,inactive
CG13857,DRSC14707,,73640,61730,inactive
CG4770,DRSC15639,,55960,73920,inactive
CG17294,DRSC02596,,1.38e5,96227,inactive
